Measurements as given in PubChem BioAssay AID662 (National Center for Advancing Translational Sciences (NCATS), 2007).
Values joined by “and” are separate entries in the source; they are usually repeats but may differ in a detail not shown here. Identical values can stand only once. Some of the results follow. The main result of the screen is listed elsewhere. These columns were measured beside it and carry no call. Compounds called inactive in the main read-out are mostly missing here. Potencies come from curve fits of mixed quality, noted in brackets.

Test: Cell signaling CRE-BLA (Fsk stim)
Conditions: CHO CRE-bla reporter (cAMP response element driving beta-lactamase), forskolin EC10, beta-lactamase ratio; measured here: 460 nm blue channel
Method in brief: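 qHTS titration format; CRE-bla CHO reporter; stimulus EC10 NKH 477, a water-soluble forskolin. Read: CCF4 460/530 nm ratio. Potency expressed as AC50 for activators or inhibitors.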

Compound	AC50
Clc1ccc2[nH]c3c(c2c1)CCc1cn[nH]c1-3	6.31 µM [falling, partial curve]
COc1ccc(CNc2ccnc(-c3ccc(C(=O)N(C)C)cc3)n2)c(OC)c1	6.31 µM [rising, partial curve]
Cc1ccc(S(=O)(=O)Nc2cccc(-c3cn4ccsc4n3)c2)cc1	10 µM [rising, partial curve]
O=C1NC2NC(=O)N(C(Cc3ccccc3)C(=O)O)C2N1 (stereo not drawn)	0.251 µM [rising, partial curve]
CC(C)Sc1nc2c(c(=O)n1-c1ccc(F)cc1)SCC2	12.6 µM [rising, partial curve]
Cc1nn(-c2ccccc2)c2sc(C(=O)N3CCOCC3)cc12	5.01 µM [rising, partial curve]
CCOC(=O)c1c(N)c(C#N)c2n1CCCCC2	12.6 µM [rising, single point]
O=S(=O)(CC(CN1CCCC1)N1CCCC1)c1ccc2ccccc2c1 (stereo not drawn)	3.98 µM [falling, partial curve]
Cc1cc(C(=O)CSc2nnc(-c3ccc(OC(F)F)cc3)o2)c(C)n1Cc1cccs1	5.01 µM [falling, single point]
CCn1c(NC(=O)Nc2ccccc2OC)nc2ccccc21	0.0794 µM [falling, full curve, poor fit]
COc1ccc(-n2c(Cc3cccn3C)nnc2SCC(=O)Nc2cc(Cl)ccc2OC)cc1	25.1 µM [falling, single point]
Cc1ccnc2ccc(-c3nc4ccccc4o3)cc12	0.316 µM [falling, full curve]
N#CCCn1c(=O)c(-c2ccc(Cl)cc2)nc2cnc(Oc3cccc(Cl)c3)nc21	3.16 µM [rising, full curve]
O=C(CSc1nc2sc3c(c2c(=O)n1-c1ccccc1)CCCC3)NCc1ccco1	5.01 µM [rising, partial curve]
CCCCCn1c(N)c(C#N)c2nc3ccccc3nc21	10 µM [rising, partial curve]
CCOc1ccc(NC(=O)CN2CCN(CC(=O)Nc3cccc(F)c3)CC2)cc1	5.01 µM [falling, partial curve, poor fit]
COCCn1c(=O)c(-c2cccc(C#N)c2)nc2cnc(N3CCOCC3)nc21	15.8 µM [rising, partial curve]
CC1=C(C#N)C(c2cccnc2)C2=C(CC(C)(C)CC2=O)N1 (stereo not drawn)	15.8 µM [rising, partial curve]
Cc1ccc(Nc2ncnc3nc[nH]c23)cc1Cl	12.6 µM [rising, partial curve]
O=C(CN1C(=O)c2ccccc2S1(=O)=O)N1CCN(c2cccc(Cl)c2)CC1	0.0794 µM [falling, full curve]
COc1nc(NCc2cccnc2)nc(OC)n1	12.6 µM [rising, single point]
COc1ccc(-c2cc3ccccc3n2CC(O)CN2CCOCC2)cc1 (stereo not drawn)	3.16 µM [rising, single point]
COc1cc2nc(N3CCN(C(=O)[C@H]4COc5ccccc5O4)CC3)nc(N)c2cc1OC	31.6 µM [rising, single point]

Compound	AC50
CCOC(=O)C1=C(CNCCc2ccc(Cl)cc2)NC(=O)NC1c1ccc2c(c1)OCO2 (stereo not drawn)	2 µM [rising, full curve]
O=C(Cn1cccc1C(=O)c1ccccc1)NCCN1CCCCCC1	31.6 µM [falling, partial curve, poor fit]
COc1cccc(Cn2c(=O)c(-c3cccs3)nc3cnc(N4CCNCC4)nc32)c1	2 µM [rising, full curve]
c1ccc(-c2c3ccccc3nc3[nH]c4ccccc4c23)cc1	12.6 µM [rising, partial curve]
COc1ccccc1CNc1cc(-c2c(C)noc2C)ncn1	12.6 µM [rising, single point]
Cc1cccc(-c2nnc(SCC#N)n2-c2cccc(Cl)c2)c1	25.1 µM [rising, single point]
Cc1noc(C)c1-c1nc(N(C)C)c2ccccc2n1	1 µM [rising, full curve, poor fit]
COc1ccccc1CNC(=O)C1CCN(Cc2nc(-c3cccc(Cl)c3)oc2C)CC1	0.0631 µM [falling, full curve, poor fit]
CCOC(=O)Cc1csc(SCc2nc3ccccc3c(=O)[nH]2)n1	20 µM [rising, single point]
COC(=O)c1cc(CSc2nnc(-c3ccccc3)c(-c3ccccc3)n2)oc1C	25.1 µM [rising, single point]
CC(C)CC(NC(=O)C1CCC(C)CC1)C(=O)Nc1cccnc1 (stereo not drawn)	7.94 µM [rising, partial curve, poor fit]
COc1cccc(CNc2nc3ccccc3n2CCN2CCCCC2)c1OC	12.6 µM [rising, single point]
CCNc1nc(CC)nc2c1oc1ccccc12	1.58 µM [rising, partial curve]
COc1ccc(S(=O)(=O)c2ccc(OC)c(OC)c2)cc1OC	10 µM [rising, partial curve]
Cc1noc(C)c1COC(=O)c1ccc2c(c1)S(=O)(=O)c1ccccc1C2=O	1.26 µM [rising, full curve]
c1coc(C2Nc3ccccc3-c3nc4ccccc4n32)c1 (stereo not drawn)	10 µM [rising, partial curve]
COc1ccc(S(=O)(=O)N2CCN(CC(=O)Nc3cccc(F)c3)CC2)cc1	0.316 µM [rising, full curve, poor fit]
CN1CCN(c2nc(-c3cccnc3)nc3ccccc23)CC1	10 µM [rising, partial curve] and 15.8 µM [rising, single point]
COc1cc(C2c3c(oc4c(C)cc(C)cc4c3=O)C(=O)N2Cc2cccnc2)cc(OC)c1OC (stereo not drawn)	25.1 µM [rising, single point]
CCOC(=O)c1nc(-c2ccc3c(c2)OCO3)[nH]c1C	10 µM [rising, partial curve]
Cc1onc(-c2ccccc2Cl)c1C(=O)N1CCN(c2cccc(Cl)c2)CC1	0.501 µM [rising, partial curve]
Cn1nc(C(=O)N2CCN(S(=O)(=O)c3ccccc3)CC2)c2ccccc2c1=O	0.02 µM [falling, full curve, poor fit]
O=c1c(-c2ccccc2)nc2cnc(Nc3ccccc3)nc2n1Cc1cccs1	2.51 µM [rising, full curve]

Compound	AC50
N#CCCn1c(=O)cnc2cnc(Nc3ccccc3)nc21	6.31 µM [rising, partial curve]
CCOC(=O)C1=C(N)n2c(s/c(=C/c3ccco3)c2=O)=C(C(=O)OC)C1c1ccco1 (stereo not drawn)	1.58 µM [rising, full curve]
COc1ccc2[nH]c3nc(SC(C)C)nnc3c2c1	10 µM [rising, partial curve]
Cc1cc(-c2nc3ccccc3o2)c2ccccc2n1	10 µM [rising, single point]
CC(C)C(C(=O)C=[N+]=[N-])N1C(=O)c2ccccc2C1=O (stereo not drawn)	3.16 µM [rising, single point]
CCN(CC)C(=O)CSc1nc2ccccc2c(=O)n1-c1cccc(OC)c1	3.16 µM [rising, full curve]
O=C(CCC1(C(=O)O)CCC(=O)NC1)NCc1ccccc1 (stereo not drawn)	0.158 µM [falling, full curve, poor fit]
CCc1nnc(NC(=O)CCN2C(=O)CCC2=O)s1	0.316 µM [rising, partial curve, poor fit]
CN(C)c1ncc2nc(-c3ccccc3)c(=O)n(C3CC3)c2n1	10 µM [rising, partial curve]
Cc1ccc(S(=O)(=O)N(C)Cc2nc(-c3ccccn3)no2)cc1	10 µM [falling, partial curve]
O=C(CC(=O)N1CCN(c2ccccn2)CC1)Nc1ccc2nc3n(c(=O)c2c1)CCCCC3	6.31 µM [rising, partial curve]
COc1cc2cc(Oc3ccc4ccc(=O)oc4c3)c(=O)oc2cc1O	25.1 µM [rising, partial curve]
CCOC(=O)Cn1c(CN2CCN(c3cccc(Cl)c3)CC2)nc2c1c(=O)[nH]c(=O)n2C	10 µM [rising, partial curve]
Cc1nn(C)c(C)c1S(=O)(=O)NCc1cccs1	3.98 µM [falling, full curve, poor fit]
COc1cc2c(cc1O)CCC1C2CC[C@@]2(C)C1CC[C@@H]2O (stereo partly drawn)	12.6 µM [rising, partial curve]
C=CCNS(=O)(=O)c1ncnc2nc[nH]c12	0.000794 µM [falling, full curve, poor fit]
O=C(c1ccccc1)c1ccc2nc[nH]c2c1	2 µM [falling, partial curve]
O=C(O)C1C2C=CC(C2)C1C(=O)N1CCOCC1 (stereo not drawn)	0.316 µM [falling, partial curve]
Cc1ccc(C2C(C#N)=C(N)Oc3nc(-c4ccccc4)[nH]c32)o1 (stereo not drawn)	20 µM [falling, partial curve, poor fit]
c1ccc(N2CCN(c3ccccc3)C2c2cccs2)cc1	25.1 µM [falling, single point]
COc1ccccc1-c1nc(-c2ccc(C)nc2OC)no1	1.26 µM [rising, full curve, poor fit]
CCn1nnc(-c2ccccc2NC(=O)c2cc(OC)cc(OC)c2)n1	3.16 µM [rising, full curve]
